From the supplement of paper PMC3334620
Over roughly 33,000 sequences, “E-score (-0.5 to 0.5)” has its median near -0.0034; the highest 2% begin near 0.25. Some of the results follow.

The sequences below were run against T1, Yap3 (UniProt P38749) (assay: PBM E-score (8-mer binding enrichment) (E-score (-0.5 to 0.5)); higher = stronger / more preferred TF binding). Details: protein concentration: 100 nM; construct: GST-full length.
T1 sequence: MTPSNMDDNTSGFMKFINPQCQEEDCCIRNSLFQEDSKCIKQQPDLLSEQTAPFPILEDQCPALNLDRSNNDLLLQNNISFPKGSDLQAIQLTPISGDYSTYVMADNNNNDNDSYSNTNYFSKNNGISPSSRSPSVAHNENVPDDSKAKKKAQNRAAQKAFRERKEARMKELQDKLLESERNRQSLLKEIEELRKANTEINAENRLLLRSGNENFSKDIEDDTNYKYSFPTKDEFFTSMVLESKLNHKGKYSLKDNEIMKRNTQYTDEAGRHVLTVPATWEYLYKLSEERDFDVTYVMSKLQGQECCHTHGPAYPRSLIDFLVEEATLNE
How it was run: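 The E-score, a modified Wilcoxon-Mann-Whitney statistic, was computed by the Universal PBM Analysis Suite for every ungapped eight-base word pooled with its reverse complement. Scans behind it were normalised with masliner after bound GST-tagged yeast transcription factors were detected with fluorescent anti-GST. The proteins, at about 100-200 nM, had been applied to universal all-10-mer Agilent arrays made double-stranded by primer extension.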

| Sequence | PBM E-score |
| --- | --- |
| GCAACATA | 0.0566 |
| TGACACCA | 0.0134 |
| ATTCCACG | 0.0384 |
| AGCGCGTG | -0.0708 |
| GCGGAGAC | 0.119 |
| ATGGCCGA | 0.0282 |
| GGCGGCAA | 0.0366 |
| GCCTAAAC | -0.0538 |
| CGGCCTGC | -0.257 |
| TCGGGTAA | 0.00408 |
| AGTAGTGC | -0.00418 |
| GGAAATCC | 0.0434 |
| GACGACGA | 0.091 |
| AAAAACCA | 0.174 |
| GCGATAAC | 0.0383 |
| CATGTGAG | -0.0621 |
| AAAGTTAC | 0.121 |
| AGGGGCAT | -0.0626 |
| CGGACCAC | -0.103 |
| CATTTGTA | 0.159 |
| AGACTGAG | -0.175 |
| GGTATTAA | -0.00206 |

| Sequence | PBM E-score |
| --- | --- |
| CGACCATA | 0.0163 |
| ATACGTCG | 0.0457 |
| AGCCCGCT | -0.187 |
| AAAGACAT | 0.102 |
| TACAAATA | 0.299 |
| ACGGACTG | -0.0873 |
| CGCCTGCA | -0.0498 |
| CGAACTAA | 0.198 |
| AACTAGGG | -0.0932 |
| ACAAAAAA | 0.234 |
| CCCGCAAA | 0.106 |
| AAACAAAA | 0.185 |
| TACCTAGA | -0.0956 |
| CGCGAGAA | -0.118 |
| CAGGAAAA | 0.131 |
| CACTGTCA | 0.0577 |
| CTCGCCTA | 0.0188 |
| CCGTATGC | 0.0186 |
| CAGTTAAA | 0.138 |
| AGCCCTCG | -0.155 |
| TTCTTAAA | -0.055 |
| AACAGATG | -0.0111 |

| Sequence | PBM E-score |
| --- | --- |
| CAGAAGGA | -0.283 |
| GCGCGACC | 0.0585 |
| GTCCATGA | -0.224 |
| AACCTAAG | 0.0818 |
| AAGGGTCT | -0.135 |
| CTTGGATA | -0.057 |
| ACCAGTAG | -0.155 |
| ATTGGCGA | 0.0133 |
| GTTTAGGA | -0.137 |
| AGAGCGGA | -0.073 |
| AATCACCT | 0.135 |
| AAACTCTC | -0.0171 |
| CGAACCCA | -0.181 |
| CATGGTTA | 0.104 |
| AAGGACTT | -0.36 |
| AGCCTCAT | -0.158 |
| ATCTCATC | 0.156 |
| CAAATCCA | 0.151 |
| CGCCACCG | -0.127 |
| AGTGTGAG | -0.00503 |
| CTGTACGA | 0.0353 |
| AACGATAA | 0.0431 |

5 records picked at random from the list so far, as already listed:

| Sequence | PBM E-score |
| --- | --- |
| AATCACCT | 0.135 |
| AAACTCTC | -0.0171 |
| CTGTACGA | 0.0353 |
| AACCTAAG | 0.0818 |
| GTCCATGA | -0.224 |

More results follow.

| Sequence | PBM E-score |
| --- | --- |
| CATTACGA | 0.149 |
| ATAACCCG | -0.26 |
| CCGATTCG | 0.211 |
| ACGGTCAA | 0.0988 |
| CCTGGGAA | -0.0567 |
| CCTGATCA | -0.152 |
| CGTCATCC | 0.157 |
| AAAGGATC | 0.0884 |
| ACAATGCC | 0.0768 |
| ATAAAGGG | -0.0519 |
| GCCTTGCA | -0.148 |
| AGCATCTC | -0.0525 |
| CCTCTAAA | 0.0577 |
| AGGACGTC | 0.0293 |
| AGCAGAGC | -0.243 |
| CACCATCG | -0.299 |
| ACCCTCTC | -0.291 |
| GACTGTAC | -0.129 |
| CTCGCAAA | -0.0493 |
| GTCCCTAA | -0.0748 |
